Results: the supplement of paper PMC10849652
The list shows a part of the results.

Sequences of proteins named here, by UniProt entry; tags and fusion partners are left off. A change or cut given only in a name is not applied to a line headed by its entry.
UniProt Q70J99: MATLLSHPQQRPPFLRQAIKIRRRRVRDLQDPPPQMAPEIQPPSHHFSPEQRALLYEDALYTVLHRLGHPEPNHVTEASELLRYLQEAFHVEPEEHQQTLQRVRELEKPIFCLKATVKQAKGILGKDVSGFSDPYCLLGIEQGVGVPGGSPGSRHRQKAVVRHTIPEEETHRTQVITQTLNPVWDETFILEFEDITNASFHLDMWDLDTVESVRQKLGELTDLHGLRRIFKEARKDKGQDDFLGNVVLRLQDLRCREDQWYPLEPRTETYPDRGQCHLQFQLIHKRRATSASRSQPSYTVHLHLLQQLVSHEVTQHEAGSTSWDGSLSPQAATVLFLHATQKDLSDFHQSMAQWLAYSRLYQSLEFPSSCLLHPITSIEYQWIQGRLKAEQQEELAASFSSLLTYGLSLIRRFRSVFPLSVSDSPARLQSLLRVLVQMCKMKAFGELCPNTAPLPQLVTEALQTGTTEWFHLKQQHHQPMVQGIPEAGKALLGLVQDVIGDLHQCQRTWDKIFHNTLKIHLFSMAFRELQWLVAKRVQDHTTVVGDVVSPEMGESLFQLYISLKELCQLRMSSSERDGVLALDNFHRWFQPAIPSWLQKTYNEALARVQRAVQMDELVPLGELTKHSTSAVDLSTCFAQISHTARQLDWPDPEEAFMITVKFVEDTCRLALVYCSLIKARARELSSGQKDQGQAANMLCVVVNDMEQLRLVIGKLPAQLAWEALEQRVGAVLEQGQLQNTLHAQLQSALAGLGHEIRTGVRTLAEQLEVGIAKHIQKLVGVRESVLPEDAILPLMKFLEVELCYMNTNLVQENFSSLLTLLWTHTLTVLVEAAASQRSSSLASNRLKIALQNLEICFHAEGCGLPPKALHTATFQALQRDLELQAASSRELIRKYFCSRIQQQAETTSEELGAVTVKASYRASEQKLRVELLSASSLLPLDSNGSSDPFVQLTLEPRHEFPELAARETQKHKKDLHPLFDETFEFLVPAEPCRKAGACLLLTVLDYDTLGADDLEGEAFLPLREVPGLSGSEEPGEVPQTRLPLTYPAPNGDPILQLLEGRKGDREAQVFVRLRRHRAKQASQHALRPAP
UniProt Q9H3U1: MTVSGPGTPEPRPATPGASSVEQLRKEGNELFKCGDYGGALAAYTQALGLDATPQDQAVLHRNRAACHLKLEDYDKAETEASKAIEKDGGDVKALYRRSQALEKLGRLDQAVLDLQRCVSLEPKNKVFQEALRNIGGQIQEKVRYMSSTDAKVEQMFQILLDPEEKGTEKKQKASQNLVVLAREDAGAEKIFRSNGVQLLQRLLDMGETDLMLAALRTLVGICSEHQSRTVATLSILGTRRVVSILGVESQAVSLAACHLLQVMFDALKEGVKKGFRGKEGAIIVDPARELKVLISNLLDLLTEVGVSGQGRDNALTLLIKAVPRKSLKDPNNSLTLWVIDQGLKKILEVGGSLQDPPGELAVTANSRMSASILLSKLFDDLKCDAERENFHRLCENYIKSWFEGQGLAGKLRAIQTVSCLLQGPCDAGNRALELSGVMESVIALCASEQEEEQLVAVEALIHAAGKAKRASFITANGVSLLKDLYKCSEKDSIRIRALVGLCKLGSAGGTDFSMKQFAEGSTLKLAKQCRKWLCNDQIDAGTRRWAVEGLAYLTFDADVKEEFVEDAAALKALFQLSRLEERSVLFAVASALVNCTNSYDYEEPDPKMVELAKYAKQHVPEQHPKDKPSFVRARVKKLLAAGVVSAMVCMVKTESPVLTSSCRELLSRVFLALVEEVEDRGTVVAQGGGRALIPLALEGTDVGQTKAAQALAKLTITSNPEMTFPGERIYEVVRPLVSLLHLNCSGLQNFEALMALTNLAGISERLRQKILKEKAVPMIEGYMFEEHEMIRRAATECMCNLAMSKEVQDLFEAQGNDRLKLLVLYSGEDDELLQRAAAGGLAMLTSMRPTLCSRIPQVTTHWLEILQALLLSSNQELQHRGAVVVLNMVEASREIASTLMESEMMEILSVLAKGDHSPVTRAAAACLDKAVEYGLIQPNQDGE
UniProt Q9P2Y5: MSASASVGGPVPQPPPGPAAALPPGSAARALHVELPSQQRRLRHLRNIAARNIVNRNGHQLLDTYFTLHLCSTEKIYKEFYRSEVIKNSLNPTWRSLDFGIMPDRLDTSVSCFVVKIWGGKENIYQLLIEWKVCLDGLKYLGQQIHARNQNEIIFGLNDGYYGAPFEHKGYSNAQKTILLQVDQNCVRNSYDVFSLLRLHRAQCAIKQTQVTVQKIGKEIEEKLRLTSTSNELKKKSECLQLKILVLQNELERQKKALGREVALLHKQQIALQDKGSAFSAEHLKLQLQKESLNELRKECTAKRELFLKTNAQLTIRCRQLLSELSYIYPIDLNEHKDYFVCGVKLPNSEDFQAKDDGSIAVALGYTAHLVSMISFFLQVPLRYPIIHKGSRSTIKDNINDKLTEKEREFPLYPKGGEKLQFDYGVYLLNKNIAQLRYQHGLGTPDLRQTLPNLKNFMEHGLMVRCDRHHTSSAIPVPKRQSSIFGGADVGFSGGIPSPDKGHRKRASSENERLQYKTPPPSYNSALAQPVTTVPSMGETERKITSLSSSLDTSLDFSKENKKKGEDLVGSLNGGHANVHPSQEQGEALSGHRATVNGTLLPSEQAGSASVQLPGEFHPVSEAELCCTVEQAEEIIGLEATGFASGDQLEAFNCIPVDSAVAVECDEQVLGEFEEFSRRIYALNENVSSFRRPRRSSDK
UniProt O94763, whole entry, looked up: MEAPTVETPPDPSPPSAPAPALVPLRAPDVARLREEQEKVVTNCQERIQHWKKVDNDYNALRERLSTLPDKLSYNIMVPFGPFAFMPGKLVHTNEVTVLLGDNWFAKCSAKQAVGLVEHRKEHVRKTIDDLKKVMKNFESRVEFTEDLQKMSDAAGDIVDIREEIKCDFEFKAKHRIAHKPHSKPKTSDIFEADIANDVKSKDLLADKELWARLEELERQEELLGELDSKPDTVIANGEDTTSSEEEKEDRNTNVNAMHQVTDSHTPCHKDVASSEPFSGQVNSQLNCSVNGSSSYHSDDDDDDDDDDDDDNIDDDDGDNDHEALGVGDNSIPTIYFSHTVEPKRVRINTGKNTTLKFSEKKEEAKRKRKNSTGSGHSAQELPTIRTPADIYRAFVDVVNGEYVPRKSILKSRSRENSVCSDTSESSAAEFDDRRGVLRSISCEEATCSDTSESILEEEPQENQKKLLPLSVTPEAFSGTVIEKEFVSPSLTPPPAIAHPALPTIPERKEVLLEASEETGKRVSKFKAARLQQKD
UniProt O14949: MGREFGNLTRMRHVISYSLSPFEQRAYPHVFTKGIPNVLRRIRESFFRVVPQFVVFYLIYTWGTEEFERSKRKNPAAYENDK
UniProt Q92575: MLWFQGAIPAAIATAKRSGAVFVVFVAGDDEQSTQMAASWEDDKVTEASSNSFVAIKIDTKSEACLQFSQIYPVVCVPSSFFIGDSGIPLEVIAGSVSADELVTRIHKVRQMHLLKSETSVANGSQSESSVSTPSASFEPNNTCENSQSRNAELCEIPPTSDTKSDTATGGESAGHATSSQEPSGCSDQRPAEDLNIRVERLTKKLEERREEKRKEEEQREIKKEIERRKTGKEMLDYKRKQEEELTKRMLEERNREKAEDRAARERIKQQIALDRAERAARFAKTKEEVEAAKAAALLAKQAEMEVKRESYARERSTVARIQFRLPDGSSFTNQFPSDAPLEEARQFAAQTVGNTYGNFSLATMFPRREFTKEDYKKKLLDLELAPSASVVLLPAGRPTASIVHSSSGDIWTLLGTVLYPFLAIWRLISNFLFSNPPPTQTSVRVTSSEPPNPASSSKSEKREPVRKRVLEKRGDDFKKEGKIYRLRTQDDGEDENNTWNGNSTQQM
UniProt P63027, whole entry, looked up: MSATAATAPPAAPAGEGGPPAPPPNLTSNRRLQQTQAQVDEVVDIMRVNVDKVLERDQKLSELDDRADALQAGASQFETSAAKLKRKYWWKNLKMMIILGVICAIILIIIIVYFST
UniProt Q9BZX2: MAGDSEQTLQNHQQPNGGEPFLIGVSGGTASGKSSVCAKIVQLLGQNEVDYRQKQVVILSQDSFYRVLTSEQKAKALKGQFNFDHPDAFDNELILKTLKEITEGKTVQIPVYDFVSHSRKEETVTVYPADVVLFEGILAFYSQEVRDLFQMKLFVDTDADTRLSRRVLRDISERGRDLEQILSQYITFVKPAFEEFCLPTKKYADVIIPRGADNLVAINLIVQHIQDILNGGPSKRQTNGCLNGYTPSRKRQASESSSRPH
UniProt Q9P0L0: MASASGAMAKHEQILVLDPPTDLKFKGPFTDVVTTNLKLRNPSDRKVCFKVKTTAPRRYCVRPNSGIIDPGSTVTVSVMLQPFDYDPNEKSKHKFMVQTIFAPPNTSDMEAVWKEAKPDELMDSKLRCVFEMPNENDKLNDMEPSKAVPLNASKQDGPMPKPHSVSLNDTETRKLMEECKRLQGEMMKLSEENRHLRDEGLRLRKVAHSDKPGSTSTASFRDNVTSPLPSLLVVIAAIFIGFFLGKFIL
UniProt Q9NYU1: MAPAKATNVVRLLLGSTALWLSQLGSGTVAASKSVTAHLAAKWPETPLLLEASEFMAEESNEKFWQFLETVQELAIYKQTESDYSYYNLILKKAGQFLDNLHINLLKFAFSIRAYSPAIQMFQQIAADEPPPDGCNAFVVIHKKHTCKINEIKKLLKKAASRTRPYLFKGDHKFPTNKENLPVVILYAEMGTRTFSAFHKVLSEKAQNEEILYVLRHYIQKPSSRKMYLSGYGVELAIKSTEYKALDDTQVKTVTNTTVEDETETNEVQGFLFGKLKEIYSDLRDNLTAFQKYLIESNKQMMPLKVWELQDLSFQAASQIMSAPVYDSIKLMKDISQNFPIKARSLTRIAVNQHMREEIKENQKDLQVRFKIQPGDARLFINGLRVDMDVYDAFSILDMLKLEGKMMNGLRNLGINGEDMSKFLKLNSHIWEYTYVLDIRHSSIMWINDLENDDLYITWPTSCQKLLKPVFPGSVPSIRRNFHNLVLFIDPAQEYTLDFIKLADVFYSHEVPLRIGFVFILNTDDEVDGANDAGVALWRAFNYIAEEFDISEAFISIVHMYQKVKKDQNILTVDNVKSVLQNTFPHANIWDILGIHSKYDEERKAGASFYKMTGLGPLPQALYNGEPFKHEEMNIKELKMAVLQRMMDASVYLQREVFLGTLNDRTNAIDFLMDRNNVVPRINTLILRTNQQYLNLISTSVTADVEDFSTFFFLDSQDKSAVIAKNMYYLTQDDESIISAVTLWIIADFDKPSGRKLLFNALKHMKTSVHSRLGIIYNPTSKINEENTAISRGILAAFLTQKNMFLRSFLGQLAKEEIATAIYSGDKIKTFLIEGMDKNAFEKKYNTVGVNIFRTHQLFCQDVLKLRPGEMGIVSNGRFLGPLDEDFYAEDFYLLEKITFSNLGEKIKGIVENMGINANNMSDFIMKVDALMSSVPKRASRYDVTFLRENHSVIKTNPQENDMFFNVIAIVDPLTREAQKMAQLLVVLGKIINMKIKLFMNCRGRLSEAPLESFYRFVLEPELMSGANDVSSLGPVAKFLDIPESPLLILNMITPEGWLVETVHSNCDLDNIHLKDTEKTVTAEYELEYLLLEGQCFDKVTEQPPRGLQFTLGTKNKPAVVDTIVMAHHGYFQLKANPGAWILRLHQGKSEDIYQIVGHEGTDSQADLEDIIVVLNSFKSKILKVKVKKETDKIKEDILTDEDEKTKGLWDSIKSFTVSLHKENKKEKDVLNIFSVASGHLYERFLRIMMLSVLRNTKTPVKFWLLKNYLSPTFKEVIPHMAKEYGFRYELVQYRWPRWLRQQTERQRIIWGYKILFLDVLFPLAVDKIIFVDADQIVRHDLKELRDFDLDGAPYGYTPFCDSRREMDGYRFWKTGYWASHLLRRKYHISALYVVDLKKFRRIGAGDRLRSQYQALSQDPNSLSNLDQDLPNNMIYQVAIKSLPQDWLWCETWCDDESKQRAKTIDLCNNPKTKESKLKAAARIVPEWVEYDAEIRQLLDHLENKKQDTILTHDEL
UniProt P47985: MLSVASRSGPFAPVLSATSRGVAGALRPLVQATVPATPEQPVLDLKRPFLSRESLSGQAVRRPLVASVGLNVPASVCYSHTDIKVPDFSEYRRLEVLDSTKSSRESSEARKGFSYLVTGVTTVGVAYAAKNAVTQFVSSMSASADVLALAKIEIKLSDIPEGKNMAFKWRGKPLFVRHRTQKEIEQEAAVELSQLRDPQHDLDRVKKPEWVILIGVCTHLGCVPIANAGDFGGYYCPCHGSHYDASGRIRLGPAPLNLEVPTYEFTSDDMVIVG
UniProt O14562: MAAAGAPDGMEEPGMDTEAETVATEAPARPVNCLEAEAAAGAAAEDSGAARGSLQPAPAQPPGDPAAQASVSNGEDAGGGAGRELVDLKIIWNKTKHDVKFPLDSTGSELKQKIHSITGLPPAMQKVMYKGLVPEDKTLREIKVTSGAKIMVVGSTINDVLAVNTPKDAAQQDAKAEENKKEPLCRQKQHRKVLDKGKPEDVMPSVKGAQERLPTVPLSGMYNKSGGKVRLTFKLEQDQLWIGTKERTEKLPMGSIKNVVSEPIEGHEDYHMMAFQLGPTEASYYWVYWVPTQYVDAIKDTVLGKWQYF

These targets were tested with C1=CC2=NC=CN=C2C=C1/C=C/3\C(=O)NC(=O)S3 (assay: log2 fold change, soluble protein after heating vs DMSO (PISA); higher = thermal stabilisation; K562 cells, 10 uM, 30 min; active = over 0.2 and 3.5 SD of the protein, either way, in both replicates (recomputed)).
How it was run: (§1)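 K562 cells at 2×10^6 cells/mL were treated for 30 min with 10 μM compound, and aliquots were heated for 3 min over 48°C-58°C before pooling. Extraction used PBS with 0.5% NP-40 at 4°C, and soluble protein was the supernatant after 21,000xg for 90 min, measured by TMTpro 16plex LC-MS/MS with channel sums equalised. Thermal stability values, relative to control samples and from duplicates, are log2 fold changes.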

log2 fold change, inactive:
UBQLN2 (UniProt Q9UHD9) 0.037
UQCC1 (UniProt Q9NVA1) 0.075
USP1 (UniProt O94782) 0.039
UCK1 (UniProt Q9HA47) -0.005
UCHL3 (UniProt P15374) 0.04
VAC14 (UniProt Q08AM6) 0.05
UTP15 (UniProt Q8TED0) -0.029
VAMP8 (UniProt Q9BV40) 0.07
VASP (UniProt P50552) 0.004
URGCP (UniProt Q8TCY9) -0.074
UBL5 (UniProt Q9BZL1) 0.04
UIMC1 (UniProt Q96RL1) -0.059
USP47 (UniProt Q96K76) -0.044
UNC13D isoform 3 (UniProt Q70J99) 0.05
UNC45A (UniProt Q9H3U1) 0
UVRAG (UniProt Q9P2Y5) 0.105
URI1 isoform 4 (UniProt O94763) -0.051
VAMP4 (UniProt O75379) 0.048
UQCRQ (UniProt O14949) 0.014
UBR7 (UniProt Q8N806) 0.008
UPF1 (UniProt Q92900) -0.03
UFC1 (UniProt Q9Y3C8) 0.012
UBE3C (UniProt Q15386) -0.002
UBXN4 (UniProt Q92575) 0.049
VAMP2 (UniProt P63027) 0.044
UCK2 (UniProt Q9BZX2) -0.027
VAPA (UniProt Q9P0L0) 0.063
UGGT2 (UniProt Q9NYU1) 0.009
UROS (UniProt P10746) 0.01
USP16 (UniProt Q9Y5T5) 0.275
UPF2 (UniProt Q9HAU5) -0.04
USE1 (UniProt Q9NZ43) 0
UBL7 (UniProt Q96S82) 0.06
UROD (UniProt P06132) -0.008
UQCRFS1 (UniProt P47985) 0.023
URI1 (UniProt O94763) -0.02
USP10 isoform 2 (UniProt Q14694) 0.039
USP30 (UniProt Q70CQ3) 0.112
UBFD1 (UniProt O14562) 0.019

What follows are targets tested with C1=CC=C(C=C1)C2=NC(=C(N2)C3=CC=NC=C3)C4=CC(=C(C=C4)Cl)O in the same assay as above.
How it was run: as §1

log2 fold change, inactive:
UBQLN2 (UniProt Q9UHD9) 0.034
UQCC1 (UniProt Q9NVA1) 0.003
USP1 (UniProt O94782) -0.159
UCK1 (UniProt Q9HA47) 0.053
UCHL3 (UniProt P15374) -0.045
VAC14 (UniProt Q08AM6) -0.012
UTP15 (UniProt Q8TED0) -0.014
VAMP8 (UniProt Q9BV40) -0.016
VASP (UniProt P50552) -0.021
URGCP (UniProt Q8TCY9) 0.068
UBL5 (UniProt Q9BZL1) -0.072
UIMC1 (UniProt Q96RL1) -0.085
USP47 (UniProt Q96K76) -0.015
UNC13D isoform 3 (UniProt Q70J99) 0.024
UNC45A (UniProt Q9H3U1) 0.007
UVRAG (UniProt Q9P2Y5) -0.008
URI1 isoform 4 (UniProt O94763) -0.052
VAMP4 (UniProt O75379) 0.017
UQCRQ (UniProt O14949) 0.003
UBR7 (UniProt Q8N806) -0.09
UPF1 (UniProt Q92900) -0.004
UFC1 (UniProt Q9Y3C8) 0.025
UBE3C (UniProt Q15386) 0.018
UBXN4 (UniProt Q92575) 0.053
VAMP2 (UniProt P63027) 0.035
UCK2 (UniProt Q9BZX2) -0.017
VAPA (UniProt Q9P0L0) 0.033
UGGT2 (UniProt Q9NYU1) 0.002
UROS (UniProt P10746) -0.038
USP16 (UniProt Q9Y5T5) 0.12
UPF2 (UniProt Q9HAU5) -0.007
USE1 (UniProt Q9NZ43) 0.037
UBL7 (UniProt Q96S82) -0.015
UROD (UniProt P06132) 0.012
UQCRFS1 (UniProt P47985) -0.033
URI1 (UniProt O94763) -0.059
USP10 isoform 2 (UniProt Q14694) -0.004
USP30 (UniProt Q70CQ3) -0.069
UBFD1 (UniProt O14562) -0.006
